PMC7363672
Results are given in words; binding and its absence hold for the method and conditions named. Binding seen in cells or lysates may run through a third protein. Some entries that bind do so weakly or less than the wild type. Where a sequence is shown, tags or fusion partners need not be part of it.

Target: T1, Rad5 protein tagged with FLAG epitope (S. cerevisiae) (UniProt P32849)
T1 sequence: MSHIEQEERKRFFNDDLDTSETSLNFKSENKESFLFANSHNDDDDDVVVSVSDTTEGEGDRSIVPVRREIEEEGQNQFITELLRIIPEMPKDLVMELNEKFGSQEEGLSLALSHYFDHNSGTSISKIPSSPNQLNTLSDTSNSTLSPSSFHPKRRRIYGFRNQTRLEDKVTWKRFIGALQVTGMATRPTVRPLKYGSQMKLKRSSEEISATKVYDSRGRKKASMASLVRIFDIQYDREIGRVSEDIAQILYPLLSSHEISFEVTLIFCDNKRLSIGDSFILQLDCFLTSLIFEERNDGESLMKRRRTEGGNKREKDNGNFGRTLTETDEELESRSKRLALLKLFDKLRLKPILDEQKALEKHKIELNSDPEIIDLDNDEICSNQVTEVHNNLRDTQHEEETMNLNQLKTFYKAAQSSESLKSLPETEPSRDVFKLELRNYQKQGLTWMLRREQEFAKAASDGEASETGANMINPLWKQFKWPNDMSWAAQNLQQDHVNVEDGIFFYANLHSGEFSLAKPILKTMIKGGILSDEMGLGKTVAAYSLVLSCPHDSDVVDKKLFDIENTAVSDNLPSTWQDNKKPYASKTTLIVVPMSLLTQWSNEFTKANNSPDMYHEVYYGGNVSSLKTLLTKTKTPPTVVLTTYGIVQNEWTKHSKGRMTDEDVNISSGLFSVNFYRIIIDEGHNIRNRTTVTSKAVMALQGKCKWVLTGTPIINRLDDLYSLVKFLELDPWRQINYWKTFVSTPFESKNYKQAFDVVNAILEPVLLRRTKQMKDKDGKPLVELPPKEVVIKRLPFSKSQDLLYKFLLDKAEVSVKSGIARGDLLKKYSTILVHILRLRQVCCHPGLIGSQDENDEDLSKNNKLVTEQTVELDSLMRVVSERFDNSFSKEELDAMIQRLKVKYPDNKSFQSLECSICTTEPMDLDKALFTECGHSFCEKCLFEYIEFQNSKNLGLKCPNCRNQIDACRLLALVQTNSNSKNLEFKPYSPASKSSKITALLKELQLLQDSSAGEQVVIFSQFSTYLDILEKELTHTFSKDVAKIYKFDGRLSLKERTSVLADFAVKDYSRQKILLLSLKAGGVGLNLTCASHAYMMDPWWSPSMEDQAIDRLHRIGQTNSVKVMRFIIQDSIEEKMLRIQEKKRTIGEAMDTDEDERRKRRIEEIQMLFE
Test: co-IP; whole yeast cell extracts (2 mg protein, RIPA lysis buffer: 25 mM Tris-HCl pH 7.6, 150 mM NaCl, 1% NP-40, 1 mM EDTA) of strains DGY19 and BYRev1-ProA-His7 incubated with anti-FLAG affinity gel overnight at 4 °C; Rev1-ProA detected with PAP antibody, Rad5 with anti-FLAG

B1: Rev1 C-terminally tagged with a TEV-ProA-His7 epitope (protein, UniProt P12689 1-985)
chain: MGEHGGLVDLLDSDLEYSINRETPDKNNCLSQQSVNDSHLTAKTGGLNARSFLSTLSDDSLIEYVNQLSQTNKNNSNPTAGTLRFTTKNISCDELHADLGGGEDSPIARSVIEIQESDSNGDDVKKNTVYTREAYFHEKAHGQTLQDQILKDQYKDQISSQSSKIFKNCVIYINGYTKPGRLQLHEMIVLHGGKFLHYLSSKKTVTHIVASNLPLKKRIEFANYKVVSPDWIVDSVKEARLLPWQNYSLTSKLDEQQKKLDNCKTVNSIPLPSETSLHKGSKCVGSALLPVEQQSPVNLNNLEAKRIVACDDPDFLTSYFAHSRLHHLSAWKANLKDKFLNENIHKYTKITDKDTYIIFHIDFDCFFATVAYLCRSSSFSACDFKRDPIVVCHGTKNSDIASCNYVARSYGIKNGMWVSQAEKMLPNGIKLISLPYTFEQFQLKSEAFYSTLKRLNIFNLILPISIDEAVCVRIIPDNIHNTNTLNARLCEEIRQEIFQGTNGCTVSIGCSDSLVLARLALKMAKPNGYNITFKSNLSEEFWSSFKLDDLPGVGHSTLSRLESTFDSPHSLNDLRKRYTLDALKASVGSKLGMKIHLALQGQDDEESLKILYDPKEVLQRKSLSIDINWGIRFKNITQVDLFIERGCQYLLEKLNEINKTTSQITLKLMRRCKDAPIEPPKYMGMGRCDSFSRSSRLGIPTNEFGIIATEMKSLYRTLGCPPMELRGLALQFNKLVDVGPDNNQLKLRLPFKTIVTNRAFEALPEDVKNDINNEFEKRNYKRKESGLTSNSLSSKKKGFAISRLEVNDLPSTMEEQFMNELPTQIRAEVRHDLRIQKKIQQTKLGNLQEKIKRREESLQNEKNHFMGQNSIFQPIKFQNLTRFKKICQLVKQWVAETLGDGGPHEKDVKLFVKYLIKLCDSNRVHLVLHLSNLISRELNLCAFLNQDHSGFQTWERILLNDIIPLLNRNKHTYQTVRKLDMDFEV
**Q.** For B1, which binding is on record?
**A.** binds
